Experimental data taken from article PMC10564908.
No constants are given. Whether binding was seen depends on the method and setting. Binding seen in cells or lysates may run through a third protein. Some entries that bind do so weakly or less than the wild type. Blank lines part the entries; values can stand above or below the substance they belong to.

By UniProt entry, the sequences of proteins in these tests, tags left out.
UniProt Q96EB6: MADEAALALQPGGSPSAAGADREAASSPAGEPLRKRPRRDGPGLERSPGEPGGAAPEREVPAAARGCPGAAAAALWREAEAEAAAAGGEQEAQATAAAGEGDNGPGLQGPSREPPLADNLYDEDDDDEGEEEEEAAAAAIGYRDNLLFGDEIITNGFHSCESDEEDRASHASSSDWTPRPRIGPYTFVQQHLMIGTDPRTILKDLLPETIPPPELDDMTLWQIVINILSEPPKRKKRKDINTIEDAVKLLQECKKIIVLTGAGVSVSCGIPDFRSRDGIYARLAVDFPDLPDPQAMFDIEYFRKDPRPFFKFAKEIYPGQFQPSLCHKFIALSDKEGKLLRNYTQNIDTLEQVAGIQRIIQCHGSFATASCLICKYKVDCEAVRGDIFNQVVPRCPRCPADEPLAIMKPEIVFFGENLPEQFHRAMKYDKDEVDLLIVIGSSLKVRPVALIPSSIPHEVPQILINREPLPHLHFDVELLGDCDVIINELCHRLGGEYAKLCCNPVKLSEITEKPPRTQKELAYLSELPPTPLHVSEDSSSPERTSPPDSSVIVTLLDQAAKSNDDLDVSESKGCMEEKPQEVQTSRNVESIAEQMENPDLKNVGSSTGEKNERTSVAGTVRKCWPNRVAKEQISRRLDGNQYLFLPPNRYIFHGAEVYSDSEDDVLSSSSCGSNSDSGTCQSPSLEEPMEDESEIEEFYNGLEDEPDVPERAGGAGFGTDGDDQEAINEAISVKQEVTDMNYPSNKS

Experiments:
[1] = biological target: FLAG-tagged SIRT1 (full length SIRT1-FLAG) (UniProt Q96EB6); assay: proximity ligation; HEK293T cells transfected with HSP90α-HA and SIRT1-FLAG constructs (full length or fragments), fixed and permeabilised; anti-FLAG and anti-HA primary antibodies; Duolink, signal at <40 nm; interphase and mitotic cells
[2] = biological target: FLAG-tagged SIRT1 (full length SIRT1-FLAG) (UniProt Q96EB6); assay: co-IP; lysates of HEK293T cells overexpressing FLAG-tagged SIRT1; immunoprecipitation with α-FLAG or with α-HSP90α antibody on magnetic beads (Universal Magnetic Co-IP Kit), 4 °C; immunoblot
[3] = biological target: endogenous SIRT1 in DLBCL cells (human (endogenous in DLBCL cell lines)) (UniProt Q96EB6); assay: proximity ligation; endogenous proteins in fixed, permeabilised OxPhos and non-OxPhos DLBCL cell lines; anti-SIRT1 and anti-HSP90α primary antibodies; Duolink, signal at <40 nm; interphase and mitotic cells (starvation/nocodazole enrichment)

Substance: HA-tagged HSP90α (HSP90α-HA) (from UniProt P07900 1-732)
binding [1]: binds

binding [2]: binds
Substance: HSP90α (in HEK293T cells overexpressing FLAG-tagged SIRT1) (from UniProt P07900 1-732)

binding [3]: binds
Substance: endogenous HSP90α in DLBCL cells (from UniProt P07900 1-732)
